Data taken from PMC5760533.
No constants are given. Whether binding was seen depends on the method and setting. Some results given as binding are weak or reduced against the parent protein; the word gives no strength.

T1: human RFX1, in vitro translated (human) (UniProt P22670)
T1 sequence: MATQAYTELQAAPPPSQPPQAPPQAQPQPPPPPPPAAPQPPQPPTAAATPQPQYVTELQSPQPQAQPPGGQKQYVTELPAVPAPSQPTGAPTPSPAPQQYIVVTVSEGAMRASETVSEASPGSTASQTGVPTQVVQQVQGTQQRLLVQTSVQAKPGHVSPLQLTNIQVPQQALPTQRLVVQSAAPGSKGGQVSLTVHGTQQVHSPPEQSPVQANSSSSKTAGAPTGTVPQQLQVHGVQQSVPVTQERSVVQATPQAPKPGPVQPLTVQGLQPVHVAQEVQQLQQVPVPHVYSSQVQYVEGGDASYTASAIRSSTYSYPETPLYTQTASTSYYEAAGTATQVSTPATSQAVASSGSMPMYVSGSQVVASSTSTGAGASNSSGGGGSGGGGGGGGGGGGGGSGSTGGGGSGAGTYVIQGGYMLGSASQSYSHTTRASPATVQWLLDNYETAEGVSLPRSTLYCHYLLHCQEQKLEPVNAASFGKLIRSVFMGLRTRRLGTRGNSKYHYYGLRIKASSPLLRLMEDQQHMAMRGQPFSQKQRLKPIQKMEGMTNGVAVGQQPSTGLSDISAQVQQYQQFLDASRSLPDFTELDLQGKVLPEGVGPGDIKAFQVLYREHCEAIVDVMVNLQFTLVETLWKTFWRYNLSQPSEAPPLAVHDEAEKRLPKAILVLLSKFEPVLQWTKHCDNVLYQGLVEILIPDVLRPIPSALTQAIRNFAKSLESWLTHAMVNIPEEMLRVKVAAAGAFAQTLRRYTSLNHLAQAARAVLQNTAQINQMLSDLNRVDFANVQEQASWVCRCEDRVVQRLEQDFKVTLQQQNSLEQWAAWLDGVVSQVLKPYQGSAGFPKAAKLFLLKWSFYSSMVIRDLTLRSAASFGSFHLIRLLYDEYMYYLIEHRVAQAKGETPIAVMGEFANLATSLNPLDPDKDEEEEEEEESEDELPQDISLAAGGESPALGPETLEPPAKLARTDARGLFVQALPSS

T2: RFX1 of HEK-293 nuclear extract (human (endogenous in HEK-293)) (UniProt P22670)
T2 sequence: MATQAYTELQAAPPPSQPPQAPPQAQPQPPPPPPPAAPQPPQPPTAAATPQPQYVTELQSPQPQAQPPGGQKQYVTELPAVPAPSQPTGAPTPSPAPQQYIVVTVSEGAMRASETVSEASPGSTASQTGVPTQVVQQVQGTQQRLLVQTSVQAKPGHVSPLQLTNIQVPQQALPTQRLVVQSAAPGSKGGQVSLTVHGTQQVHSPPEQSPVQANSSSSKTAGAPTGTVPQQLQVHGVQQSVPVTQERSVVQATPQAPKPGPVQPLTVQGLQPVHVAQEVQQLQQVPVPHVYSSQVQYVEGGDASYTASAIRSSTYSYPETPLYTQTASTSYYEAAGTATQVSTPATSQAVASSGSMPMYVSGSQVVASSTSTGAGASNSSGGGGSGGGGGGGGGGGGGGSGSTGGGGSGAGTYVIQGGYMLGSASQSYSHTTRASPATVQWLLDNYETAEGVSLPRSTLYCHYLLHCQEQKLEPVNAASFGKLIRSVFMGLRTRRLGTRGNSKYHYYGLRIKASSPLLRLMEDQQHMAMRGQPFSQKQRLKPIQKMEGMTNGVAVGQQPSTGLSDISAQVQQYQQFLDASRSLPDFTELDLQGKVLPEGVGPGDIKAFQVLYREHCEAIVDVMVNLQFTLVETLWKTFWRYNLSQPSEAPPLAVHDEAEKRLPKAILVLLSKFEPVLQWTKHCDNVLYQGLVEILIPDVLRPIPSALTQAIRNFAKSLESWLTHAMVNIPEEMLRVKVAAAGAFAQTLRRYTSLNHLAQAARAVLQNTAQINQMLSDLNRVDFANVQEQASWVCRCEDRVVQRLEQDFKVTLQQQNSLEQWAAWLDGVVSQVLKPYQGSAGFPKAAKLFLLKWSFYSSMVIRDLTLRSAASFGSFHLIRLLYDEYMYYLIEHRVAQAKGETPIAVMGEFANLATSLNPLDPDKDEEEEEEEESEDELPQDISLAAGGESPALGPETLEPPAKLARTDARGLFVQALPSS


Key:
[1] = biological target: T1, human RFX1, in vitro translated (human); test: native gel or EMSA; in vitro translated RFX1, RFX3 (alone or cotranslated) with 32P-labelled X-box or D2 double-stranded oligonucleotide; 30 min at 20 °C, 20 mM Hepes pH 7.9, 60 mM KCl, 4% Ficoll, poly(dI-dC); 4% polyacrylamide gel; dimers seen as DNA-bound complexes
[2] = biological target: human RFX3, in vitro translated (human) (UniProt P48380); test: as above
[3] = biological target: T2, RFX1 of HEK-293 nuclear extract (human (endogenous in HEK-293)); test: native gel or EMSA; HEK-293 nuclear extract with 32P-labelled D2 probe; supershift with antisera against human RFX1, RFX2, RFX3, RFXANK (20 min on ice); comigration with complexes of in vitro translated proteins; complexes are DNA-bound

Row | Binder | binding [1] | binding [2] | binding [3]
1 | human RFX1, in vitro translated (protein, UniProt P22670 1-979) MATQAYTELQAAPPPSQPPQAPPQAQPQPPPPPPPAAPQPPQPPTAAATPQPQYVTELQSPQPQAQPPGGQKQYVTELPAVPAPSQPTGAPTPSPAPQQYIVVTVSEGAMRASETVSEASPGSTASQTGVPTQVVQQVQGTQQRLLVQTSVQAKPGHVSPLQLTNIQVPQQALPTQRLVVQSAAPGSKGGQVSLTVHGTQQVHSPPEQSPVQANSSSSKTAGAPTGTVPQQLQVHGVQQSVPVTQERSVVQATPQAPKPGPVQPLTVQGLQPVHVAQEVQQLQQVPVPHVYSSQVQYVEGGDASYTASAIRSSTYSYPETPLYTQTASTSYYEAAGTATQVSTPATSQAVASSGSMPMYVSGSQVVASSTSTGAGASNSSGGGGSGGGGGGGGGGGGGGSGSTGGGGSGAGTYVIQGGYMLGSASQSYSHTTRASPATVQWLLDNYETAEGVSLPRSTLYCHYLLHCQEQKLEPVNAASFGKLIRSVFMGLRTRRLGTRGNSKYHYYGLRIKASSPLLRLMEDQQHMAMRGQPFSQKQRLKPIQKMEGMTNGVAVGQQPSTGLSDISAQVQQYQQFLDASRSLPDFTELDLQGKVLPEGVGPGDIKAFQVLYREHCEAIVDVMVNLQFTLVETLWKTFWRYNLSQPSEAPPLAVHDEAEKRLPKAILVLLSKFEPVLQWTKHCDNVLYQGLVEILIPDVLRPIPSALTQAIRNFAKSLESWLTHAMVNIPEEMLRVKVAAAGAFAQTLRRYTSLNHLAQAARAVLQNTAQINQMLSDLNRVDFANVQEQASWVCRCEDRVVQRLEQDFKVTLQQQNSLEQWAAWLDGVVSQVLKPYQGSAGFPKAAKLFLLKWSFYSSMVIRDLTLRSAASFGSFHLIRLLYDEYMYYLIEHRVAQAKGETPIAVMGEFANLATSLNPLDPDKDEEEEEEEESEDELPQDISLAAGGESPALGPETLEPPAKLARTDARGLFVQALPSS | binds | – | –
2 | human RFX3, in vitro translated (protein, UniProt P48380 1-749) MQTSETGSDTGSTVTLQTSVASQAAVPTQVVQQVPVQQQVQQVQTVQQVQHVYPAQVQYVEGSDTVYTNGAIRTTTYPYTETQMYSQNTGGNYFDTQGSSAQVTTVVSSHSMVGTGGIQMGVTGGQLISSSGGTYLIGNSMENSGHSVTHTTRASPATIEMAIETLQKSDGLSTHRSSLLNSHLQWLLDNYETAEGVSLPRSTLYNHYLRHCQEHKLDPVNAASFGKLIRSIFMGLRTRRLGTRGNSKYHYYGIRVKPDSPLNRLQEDMQYMAMRQQPMQQKQRYKPMQKVDGVADGFTGSGQQTGTSVEQTVIAQSQHHQQFLDASRALPEFGEVEISSLPDGTTFEDIKSLQSLYREHCEAILDVVVNLQFSLIEKLWQTFWRYSPSTPTDGTTITESSNLSEIESRLPKAKLITLCKHESILKWMCNCDHGMYQALVEILIPDVLRPIPSALTQAIRNFAKSLEGWLSNAMNNIPQRMIQTKVAAVSAFAQTLRRYTSLNHLAQAARAVLQNTSQINQMLSDLNRVDFANVQEQASWVCQCDDNMVQRLETDFKMTLQQQSTLEQWAAWLDNVMMQALKPYEGRPSFPKAARQFLLKWSFYSSMVIRDLTLRSAASFGSFHLIRLLYDEYMFYLVEHRVAQATGETPIAVMGEFGDLNAVSPGNLDKDEGSEVESEMDEELDDSSEPQAKREKTELSQAFPVGCMQPVLETGVQPSLLNPIHSEHIVTSTQTIRQCSATGNTYTAV | binds | binds | –
3 | RFX3 of HEK-293 nuclear extract (protein, UniProt P48380 1-749) MQTSETGSDTGSTVTLQTSVASQAAVPTQVVQQVPVQQQVQQVQTVQQVQHVYPAQVQYVEGSDTVYTNGAIRTTTYPYTETQMYSQNTGGNYFDTQGSSAQVTTVVSSHSMVGTGGIQMGVTGGQLISSSGGTYLIGNSMENSGHSVTHTTRASPATIEMAIETLQKSDGLSTHRSSLLNSHLQWLLDNYETAEGVSLPRSTLYNHYLRHCQEHKLDPVNAASFGKLIRSIFMGLRTRRLGTRGNSKYHYYGIRVKPDSPLNRLQEDMQYMAMRQQPMQQKQRYKPMQKVDGVADGFTGSGQQTGTSVEQTVIAQSQHHQQFLDASRALPEFGEVEISSLPDGTTFEDIKSLQSLYREHCEAILDVVVNLQFSLIEKLWQTFWRYSPSTPTDGTTITESSNLSEIESRLPKAKLITLCKHESILKWMCNCDHGMYQALVEILIPDVLRPIPSALTQAIRNFAKSLEGWLSNAMNNIPQRMIQTKVAAVSAFAQTLRRYTSLNHLAQAARAVLQNTSQINQMLSDLNRVDFANVQEQASWVCQCDDNMVQRLETDFKMTLQQQSTLEQWAAWLDNVMMQALKPYEGRPSFPKAARQFLLKWSFYSSMVIRDLTLRSAASFGSFHLIRLLYDEYMFYLVEHRVAQATGETPIAVMGEFGDLNAVSPGNLDKDEGSEVESEMDEELDDSSEPQAKREKTELSQAFPVGCMQPVLETGVQPSLLNPIHSEHIVTSTQTIRQCSATGNTYTAV | – | – | binds
4 | RFX1 of HEK-293 nuclear extract (protein, UniProt P22670 1-979) MATQAYTELQAAPPPSQPPQAPPQAQPQPPPPPPPAAPQPPQPPTAAATPQPQYVTELQSPQPQAQPPGGQKQYVTELPAVPAPSQPTGAPTPSPAPQQYIVVTVSEGAMRASETVSEASPGSTASQTGVPTQVVQQVQGTQQRLLVQTSVQAKPGHVSPLQLTNIQVPQQALPTQRLVVQSAAPGSKGGQVSLTVHGTQQVHSPPEQSPVQANSSSSKTAGAPTGTVPQQLQVHGVQQSVPVTQERSVVQATPQAPKPGPVQPLTVQGLQPVHVAQEVQQLQQVPVPHVYSSQVQYVEGGDASYTASAIRSSTYSYPETPLYTQTASTSYYEAAGTATQVSTPATSQAVASSGSMPMYVSGSQVVASSTSTGAGASNSSGGGGSGGGGGGGGGGGGGGSGSTGGGGSGAGTYVIQGGYMLGSASQSYSHTTRASPATVQWLLDNYETAEGVSLPRSTLYCHYLLHCQEQKLEPVNAASFGKLIRSVFMGLRTRRLGTRGNSKYHYYGLRIKASSPLLRLMEDQQHMAMRGQPFSQKQRLKPIQKMEGMTNGVAVGQQPSTGLSDISAQVQQYQQFLDASRSLPDFTELDLQGKVLPEGVGPGDIKAFQVLYREHCEAIVDVMVNLQFTLVETLWKTFWRYNLSQPSEAPPLAVHDEAEKRLPKAILVLLSKFEPVLQWTKHCDNVLYQGLVEILIPDVLRPIPSALTQAIRNFAKSLESWLTHAMVNIPEEMLRVKVAAAGAFAQTLRRYTSLNHLAQAARAVLQNTAQINQMLSDLNRVDFANVQEQASWVCRCEDRVVQRLEQDFKVTLQQQNSLEQWAAWLDGVVSQVLKPYQGSAGFPKAAKLFLLKWSFYSSMVIRDLTLRSAASFGSFHLIRLLYDEYMYYLIEHRVAQAKGETPIAVMGEFANLATSLNPLDPDKDEEEEEEEESEDELPQDISLAAGGESPALGPETLEPPAKLARTDARGLFVQALPSS | – | – | binds
